Source: patent US10294487B2, “Methods and compositions involving ALS variants with native substrate preference” (E I DU PONT DE NEMOURS AND COMPANY, priority 2012, dated 2019)

Test system: transgenic soybean seeds
Assay: C17 fatty acids in seeds of transgenic soybean
Format: in vivo, Glycine max

B1: GM-ALS_P178A_W555L: highly resistant allele (HRA) double mutant of Glycine max ALS1: P→A at 178 and W→L at 555 (protein)
chain: MAATASRTTRFSSSSSHPTFPKRITRSTLPLSHQTLTKPNHALKIKCSISKPPTAAPFTKEAPTTEPFVSRFASGEPRKGADILVEALERQGVTTVFAYPGGASMEIHQALTRSAAIRNVLPRHEQGGVFAAEGYARSSGLPGVCIATSGPGATNLVSGLADALMDSVPVVAITGQVARRMIGTDAFQETPIVEVSRSITKHNYLILDVDDIPRVVAEAFFVATSGRPGPVLIDIPKDVQQQLAVPNWDEPVNLPGYLARLPRPPAEAQLEHIVRLIMEAQKPVLYVGGGSLNSSAELRRFVELTGIPVASTLMGLGTFPIGDEYSLQMLGMHGTVYANYAVDNSDLLLAFGVRFDDRVTGKLEAFASRAKIVHIDIDSAEIGKNKQAHVSVCADLKLALKGINMILEEKGVEGKFDLGGWREEINVQKHKFPLGYKTFQDAISPQHAIEVLDELTNGDAIVSTGVGQHQMWAAQFYKYKRPRQWLTSGGLGAMGFGLPAAIGAAVANPGAVVVDIDGDGSFIMNVQELATIRVENLPVKILLLNNQHLGMVVQLEDRFYKSNRAHTYLGDPSSESEIFPNMLKFADACGIPAARVTKKEELRAAIQRMLDTPGPYLLDVIVPHQEHVLPMIPSNGSFKDVITEGDGRTRY
modifications: ALS1 variant P178A W555L
SAMS promoter, most events
  levels of C17 fatty acids: only slightly elevated levels
Strong promoter SCP1, versus G. max elite or Jack germplasm
  C17 FAs level relative to wild type plants: more than 10 ×
